Variants at the background level are over-represented here.

To fix the notation:
B1: tRNA (parent)
chain: GUUCCGUUGGCGUAAUGGUAACGCGUCUCCCUCCUAAGGAGAAGACUGCGGGUUCGAGUCCCGUACGGAACG

In this data set the parent is B1. The experiment in a line: yeast fitness relative to wild type (ratio to wild type); higher = fitter; tRNA-Arg(CCU), competitive growth, 37 C, YPD. A digest of the protocol: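 Gene amplicons from the start population and from each of six end populations were read by 100-nucleotide paired-end sequencing. Those end populations came from pooled Saccharomyces cerevisiae strains carrying tRNA-Arg(CCU) gene variants at the native locus, competed in YPD at 37°C for 24 hours. Fitness relative to wild type was worked out from changes in genotype frequencies. Genotypes needed ≥ 100 starting reads, and estimates < 0.5 were set to 0.5.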
With G17A U32A C62U, the yeast fitness was ≤ 0.5.

On to C5G A14U G18A A21U A42G G67A, for which the yeast fitness was ≤ 0.5.

In the case of U8A G18C C24A U32C C49U, the yeast fitness is ≤ 0.5.

With C22G C29G C46U C66U, the yeast fitness was ≤ 0.5.

For G23C C55G C62A, the yeast fitness is ≤ 0.5.

Regarding C24U C31U C34U A36C G39A G41C, the yeast fitness was ≤ 0.5.

As for C5U C29A C31A U54A, the yeast fitness was ≤ 0.5.

For U7A G9C A15G G23A U53A, the yeast fitness was found to be 0.505.

C5U A40C C62A A65U: the yeast fitness was ≤ 0.5.

C4U U8G A15U G51A C60U G68A: the yeast fitness was ≤ 0.5.

G10C G39A U59A G63A: the yeast fitness was ≤ 0.5.

For the variant A36C C49G A70U, the yeast fitness is ≤ 0.5.

For G6U A20C G38C A43U A45G, the yeast fitness is ≤ 0.5.

Turning to A20U A43G A70U, the yeast fitness came to 0.661.

For the variant A14G C29U A37G A65G, the yeast fitness was ≤ 0.5.

Consider G39C G48C G63C C66G, for which the yeast fitness was ≤ 0.5.

As for U8C G9A A37C A43C U59A A69G, the yeast fitness was ≤ 0.5.

In the case of C5U G48A U54G G67C, the yeast fitness was ≤ 0.5.

As for U35A A43C G51C C62A A70U, the yeast fitness is ≤ 0.5.

C24G G25C C30G U32C: the yeast fitness was ≤ 0.5.

For C4A G10A A21G C22G, the yeast fitness was ≤ 0.5.

C31U A45U G56C G63C G67C: the yeast fitness was ≤ 0.5.

For the variant C5G C34A U53A, the yeast fitness was ≤ 0.5.

For G6C C27G C62U A65U, the yeast fitness is ≤ 0.5.

Turning to U2G G9C G10A A65C, the yeast fitness is ≤ 0.5.

On to A14G C24G C31U C55A A70G, for which the yeast fitness was ≤ 0.5.

Turning to G9C C24U C30G G63C, the yeast fitness is ≤ 0.5.

Take C27G C49U C62A A69C: the yeast fitness was ≤ 0.5.

A36C U47A G48C: the yeast fitness was ≤ 0.5.

Regarding C5G A21C U32A C66A, the yeast fitness was ≤ 0.5.

Take U2G C22U C24G G67A: the yeast fitness is ≤ 0.5.

Regarding U26G A42U A45C G51C, the yeast fitness was ≤ 0.5.

G12C A20U C30U C62A A70C: the yeast fitness is ≤ 0.5.

For C61A G67A, the yeast fitness was 0.582.

With C34G A43U A70C, the yeast fitness was ≤ 0.5.

Consider C11A G12C G63A, for which the yeast fitness was ≤ 0.5.

Regarding G17C U35C G44A G48C C55G A69U, the yeast fitness was ≤ 0.5.

With C5G C30G G52A G67U, the yeast fitness is ≤ 0.5.

As to C24G C27G U54A A57U C61G A70U, the yeast fitness is ≤ 0.5.

On to U28A C31A A42C A45U G51A A65U, for which the yeast fitness is ≤ 0.5.

On to C11G U13G C66U, for which the yeast fitness is ≤ 0.5.

Take C5U C22U A42U: the yeast fitness is ≤ 0.5.

Source of the values: the RNAGym collection of RNA variant scans (doi:10.1126/science.aae0568).
